Taken from: PubChem BioAssay AID1224830 (NIAID, 2016)
Screen: 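Host factors that control LPS-induced TNF expression in human macrophages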 (primary screen). Cell system: human THP-1 monocytic leukaemia cells, TNF dual-luciferase reporter clone, PMA-differentiated to macrophage-like cells. Knock-down reagent: siRNA pool against human genes, 50 nM. Time to read-out: LPS for 4 h, given about 3 days after siRNA transfection. Challenge: bacterial LPS (TLR4 ligand), 10 ng/ml. Measured: 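TNF firefly reporter luminescence divided by renilla, normalised to the plate median, then turned into a robust z-score for each replicate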. Scale: TNF reporter robust z-score: higher = stronger TNF reporter response to LPS. Hit rule: 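Each well counts as active if its z-score is over 2.8 or under -1.5; controls are left without a call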.
This is a random part of about 18,000 reagents tested. Over the whole deposit, about 2,900 (16%) were called active. 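Calls are made per well; low scores hint the gene aids the LPS response, high scores that it dampens it.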 Entries without a mark were called inactive. Repeated entries: four replicate wells of each siRNA pool.

target	TNF reporter robust z-score
NEURL3 (neuralized E3 ubiquitin protein ligase 3)	0.57
NEURL3 (neuralized E3 ubiquitin protein ligase 3)	0.71
NEURL3 (neuralized E3 ubiquitin protein ligase 3)	0.42
NEURL3 (neuralized E3 ubiquitin protein ligase 3)	-1.17
MAP4K3 (mitogen-activated protein kinase kinase kinase kinase 3)	0.71
MAP4K3 (mitogen-activated protein kinase kinase kinase kinase 3)	-0.46
MAP4K3 (mitogen-activated protein kinase kinase kinase kinase 3)	0.6
MAP4K3 (mitogen-activated protein kinase kinase kinase kinase 3)	0.79
TNRC6C (trinucleotide repeat containing adaptor 6C)	1.78
TNRC6C (trinucleotide repeat containing adaptor 6C)	0.04
TNRC6C (trinucleotide repeat containing adaptor 6C)	-0.71
TNRC6C (trinucleotide repeat containing adaptor 6C)	-0.77
VPS37B (VPS37B subunit of ESCRT-I)	0.04
VPS37B (VPS37B subunit of ESCRT-I)	1.33
VPS37B (VPS37B subunit of ESCRT-I)	0.26
VPS37B (VPS37B subunit of ESCRT-I)	0
CCDC187 (coiled-coil domain containing 187)	0.35
CCDC187 (coiled-coil domain containing 187)	-0.53
CCDC187 (coiled-coil domain containing 187)	0.79
CCDC187 (coiled-coil domain containing 187)	0.56
SPZ1 (spermatogenic leucine zipper 1)	-0.05
SPZ1 (spermatogenic leucine zipper 1)	-0.17
SPZ1 (spermatogenic leucine zipper 1)	-0.57
SPZ1 (spermatogenic leucine zipper 1)	-0.27
OSBPL7 (oxysterol binding protein like 7)	3.67 (active)
OSBPL7 (oxysterol binding protein like 7)	0.85
OSBPL7 (oxysterol binding protein like 7)	-0.38
OSBPL7 (oxysterol binding protein like 7)	0.57
BRCA1 (BRCA1 DNA repair associated)	1.63
BRCA1 (BRCA1 DNA repair associated)	1.58
BRCA1 (BRCA1 DNA repair associated)	-0.36
BRCA1 (BRCA1 DNA repair associated)	0.85
EPHB3 (EPH receptor B3)	2.08
EPHB3 (EPH receptor B3)	1.86
EPHB3 (EPH receptor B3)	1.82
EPHB3 (EPH receptor B3)	0.14
OR2C3 (olfactory receptor family 2 subfamily C member 3)	-0.35
OR2C3 (olfactory receptor family 2 subfamily C member 3)	0.64
OR2C3 (olfactory receptor family 2 subfamily C member 3)	0.48
OR2C3 (olfactory receptor family 2 subfamily C member 3)	0.38
MYL6 (myosin light chain 6)	-0.49
MYL6 (myosin light chain 6)	-0.03
MYL6 (myosin light chain 6)	-0.55
MYL6 (myosin light chain 6)	0.32
JAM3 (junctional adhesion molecule 3)	-0.25
JAM3 (junctional adhesion molecule 3)	-0.82
JAM3 (junctional adhesion molecule 3)	-0.8
JAM3 (junctional adhesion molecule 3)	-0.01
TUBA1B (tubulin alpha 1b)	-1.08
TUBA1B (tubulin alpha 1b)	1.86
TUBA1B (tubulin alpha 1b)	0.87
TUBA1B (tubulin alpha 1b)	-0.82
NOX5 (NADPH oxidase 5)	-0.36
NOX5 (NADPH oxidase 5)	0.37
NOX5 (NADPH oxidase 5)	-0.03
NOX5 (NADPH oxidase 5)	1.06
NOX5 (NADPH oxidase 5)	0.24
NOX5 (NADPH oxidase 5)	-0.65
NOX5 (NADPH oxidase 5)	-1.09
NOX5 (NADPH oxidase 5)	0.51
SLC25A40	2.16
SLC25A40	-0.58
SLC25A40	-0.19
SLC25A40	-0.71
FBXL22 (F-box and leucine rich repeat protein 22)	-0.2
FBXL22 (F-box and leucine rich repeat protein 22)	-0.28
FBXL22 (F-box and leucine rich repeat protein 22)	0.94
FBXL22 (F-box and leucine rich repeat protein 22)	2.04
PHF10 (PHD finger protein 10)	-0.08
PHF10 (PHD finger protein 10)	-0.17
PHF10 (PHD finger protein 10)	0.36
PHF10 (PHD finger protein 10)	-0.69
ZFP36 (ZFP36 zinc finger CCCH-type)	-1.23
ZFP36 (ZFP36 zinc finger CCCH-type)	-1.51 (active)
ZFP36 (ZFP36 zinc finger CCCH-type)	-1.21
ZFP36 (ZFP36 zinc finger CCCH-type)	-0.97
NUP153 (nucleoporin 153)	0.31
NUP153 (nucleoporin 153)	0.13
NUP153 (nucleoporin 153)	-0.42
NUP153 (nucleoporin 153)	-0.31
FBN3 (fibrillin 3)	0.37
FBN3 (fibrillin 3)	-0.46
FBN3 (fibrillin 3)	0.74
FBN3 (fibrillin 3)	0.17
MSR1 (macrophage scavenger receptor 1)	-1.12
MSR1 (macrophage scavenger receptor 1)	-0.46
MSR1 (macrophage scavenger receptor 1)	-0.88
MSR1 (macrophage scavenger receptor 1)	-0.81
RHO (rhodopsin)	-0.46
RHO (rhodopsin)	0.2
RHO (rhodopsin)	-0.68
RHO (rhodopsin)	0.23
MYT1L (myelin transcription factor 1 like)	0.49
MYT1L (myelin transcription factor 1 like)	0.57
MYT1L (myelin transcription factor 1 like)	0.6
MYT1L (myelin transcription factor 1 like)	1.26
SDR16C5 (short chain dehydrogenase/reductase family 16C member 5)	0.24
SDR16C5 (short chain dehydrogenase/reductase family 16C member 5)	-0.06
SDR16C5 (short chain dehydrogenase/reductase family 16C member 5)	-0.27
SDR16C5 (short chain dehydrogenase/reductase family 16C member 5)	0.81
BMP3 (bone morphogenetic protein 3)	0.28
BMP3 (bone morphogenetic protein 3)	-0.94
BMP3 (bone morphogenetic protein 3)	-0.38
BMP3 (bone morphogenetic protein 3)	0.61
GLRA2 (glycine receptor alpha 2)	-0.4
GLRA2 (glycine receptor alpha 2)	0.02
GLRA2 (glycine receptor alpha 2)	-0.36
GLRA2 (glycine receptor alpha 2)	0.51
TBPL1 (TATA-box binding protein like 1)	-0.6
TBPL1 (TATA-box binding protein like 1)	-1.25
TBPL1 (TATA-box binding protein like 1)	-0.72
TBPL1 (TATA-box binding protein like 1)	-0.59

Not a retest: an excerpt of the list.
target	TNF reporter robust z-score
OSBPL7 (oxysterol binding protein like 7)	0.57
BRCA1 (BRCA1 DNA repair associated)	1.63
BRCA1 (BRCA1 DNA repair associated)	1.58
BRCA1 (BRCA1 DNA repair associated)	-0.36
BRCA1 (BRCA1 DNA repair associated)	0.85
EPHB3 (EPH receptor B3)	2.08
EPHB3 (EPH receptor B3)	1.86
EPHB3 (EPH receptor B3)	1.82
EPHB3 (EPH receptor B3)	0.14
OR2C3 (olfactory receptor family 2 subfamily C member 3)	-0.35
OR2C3 (olfactory receptor family 2 subfamily C member 3)	0.64
